The values below come from paper PMC5066947, “Voltage-Dependent Anion Channel-1, a Possible Ligand of Plasminogen Kringle 5” (PLoS ONE, 2016).

The chains behind the UniProt entries cited, without tags or fusion partners. Residues count along the entry.
UniProt P00747, residues 480-563: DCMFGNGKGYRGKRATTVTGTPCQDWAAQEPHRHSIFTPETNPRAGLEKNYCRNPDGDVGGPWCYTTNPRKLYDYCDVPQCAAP

These are yes or no findings as the source states them, for the method shown. Some results given as binding are weak or reduced against the parent protein; the word gives no strength.

The target in one assay is recombinant plasminogen Kringle 5 (human) (UniProt P00747). Description: phage display panning; Ph.D.-7 library panned four rounds on an ELISA plate coated with Kringle 5, an uncoated blocked well as control group; clones of both groups sequenced; only the target purified.
Take MPVGAFK [Ph.D.-7-11]: the binding entry is recorded as “no binding”.

Take PTNQHHL [Ph.D.-7-9]: the binding entry is “no binding”.

For the molecule FGAFTPH [Ph.D.-7-14], the binding result is recorded as “no binding”.

Another assay shares this target. The assay is described as follows: ELISA; phage ELISA: wells coated with 100 μL of 150 μg·mL^-1 Kringle 5, blocked with BSA and streptavidin; serial dilutions of phage clone, 2 h at room temperature; HRP-marked anti-M13 antibody, TMB; uncoated blocked wells as control; only the target purified. For orientation: An ELISA detects its analyte on a solid surface through an enzyme-linked reagent.
Turning to VKSTQYT [Ph.D.-7-10], the binding result was “binds”.

LPWQIHN [Ph.D.-7-3]: the binding entry is listed as “binds”.

Consider DELHKAR [Ph.D.-7-12], for which the binding result is on record as “binds”.

As to IGNSNTL [Ph.D.-7-1], the binding entry was “binds”.

Turning to LKLGEKW [Ph.D.-7-2], the binding result was “binds”.
